No constants are given. Whether binding was seen depends on the method and setting. In cells and extracts the contact can be indirect. A result given as binding can be weak or reduced; the word gives no strength.
Target: YAP-TEAD complex (human)
Experiment: co-IP; cell line not stated; 1% NP-40 lysis buffer (50 mM Tris-HCl pH 7.4, 150 mM NaCl, 5 mM EDTA), protein A/G magnetic beads, anti-YAP or anti-LDHD antibody, IgG control, 4 °C

binding: binds
B1: D-lactate dehydrogenase (LDHD) (enzyme, UniProt Q86WU2 53-507)
chain: QHGRDESVHRCEPPDAVVWPQNVEQVSRLAALCYRQGVPIIPFGTGTGLEGGVCAVQGGVCVNLTHMDRILELNQEDFSVVVEPGVTRKALNAHLRDSGLWFPVDPGADASLCGMAATGASGTNAVRYGTMRDNVLNLEVVLPDGRLLHTAGRGRHFRFGFWPEIPHHTAWYSPCVSLGRRKSAAGYNLTGLFVGSEGTLGLITATTLRLHPAPEATVAATCAFPSVQAAVDSTVHILQAAVPVARIEFLDEVMMDACNRYSKLNCLVAPTLFLEFHGSQQALEEQLQRTEEIVQQNGASDFSWAKEAEERSRLWTARHNAWYAALATRPGCKGYSTDVCVPISRLPEIVVQTKEDLNASGLTGSIVGHVGDGNFHCILLVNPDDAEELGRVKAFAEQLGRRALALHGTCTGEHGIGMGKRQLLQEEVGAVGVETMRQLKAVLDPQGLMNPGKVL

From PMC10427695
